Reference: patent US7029878B2, “Melanin concentrating hormone receptor chimeric and fusion proteins” (Merck & Co., Inc., priority 2000, dated 2006)

Test system: CHO cell lines
Assay: subcellular localization by confocal microscopy (EGFP fluorescence), stable cell lines
Assay type: cell-based

| Substance | subcellular localization (EGFP fluorescence) |
| --- | --- |
| human short/mouse species chimeric MCH-1R-EGFP: human short form/mouse species chimeric MCH1R-linker-EGFP, SEQ. ID. NO. 13 | primarily associated with the plasma membrane |
| mouse MCH-1R-EGFP: mouse MCH1R fused via 12 amino acid linker to EGFP, SEQ. ID. NO. 11 | primarily associated with the plasma membrane |
